Data: patent publication US9522945B2 (OPKO Biologics Ltd., priority 2012, dated 2016)
Some of these results come from one statement about several compounds together. Some compounds share one range, which may span the group rather than tell each member.

B1: CTP-OXM-CTP-CTP: oxyntomodulin with one CTP on the amino terminus and two on the carboxy terminus, SEQ ID NO: 15 (protein)
chain: MATGSRTSLLLAFGLLCLPWLQEGSASSSSKAPPPSLPSPSRLPGPSDTPILPQHSQGTFTSDYSKYLDSRRAQDFVQWLMNTKRNRNNIASSSSKAPPPSLPSPSRLPGPSDTPILPQSSSSKAPPPSLPSPSRLPGPSDTPILPQ
modifications: CTP-OXM-CTP-CTP
B2: OXM-CTP-CTP: oxyntomodulin with two CTPs in tandem on the carboxy terminus, SEQ ID NO: 21, expressed in CHO cells (protein)
chain: LEDMATGSRTSLLLAFGLLCLPWLQEGSAHSQGTFTSDYSKYLDSRRAQDFVQWLMNTKRNRNNIASSSSKAPPPSLPSPSRLPGPSDTPILPQSSSSKAPPPSLPSPSRLPGPSDTPILPQ
modifications: OXM-CTP-CTP
B3: OXM-CTP-CTP-CTP: oxyntomodulin with three CTPs on the carboxy terminus, SEQ ID NO: 25 (protein)
chain: MATGSRTSLLLAFGLLCLPWLQEGSAHSQGTFTSDYSKYLDSRRAQDFVQWLMNTKRNRNNIASSSSKAPPPSLPSPSRLPGPSDTPILPQSSSSKAPPPSLPSPSRLPGPSDTPILPQSSSSKAPPPSLPSPSRLPGPSDTPILPQ
modifications: OXM-CTPx3
B4: OXM-CTP-CTP-CTP-CTP: oxyntomodulin with four CTPs on the carboxy terminus, SEQ ID NO: 27 (protein)
chain: MATGSRTSLLLAFGLLCLPWLQEGSAHSQGTFTSDYSKYLDSRRAQDFVQWLMNTKRNRNNIASSSSKAPPPSLPSPSRLPGPSDTPILPQSSSSKAPPPSLPSPSRLPGPSDTPILPQSSSSKAPPPSLPSPSRLPGPSDTPILPQSSSSKAPPPSLPSPSRLPGPSDTPILPQ
modifications: OXM-CTPx4
B5: OXM-CTP-CTP-CTP-CTP-CTP: oxyntomodulin with five CTPs on the carboxy terminus, SEQ ID NO: 29 (protein)
chain: MATGSRTSLLLAFGLLCLPWLQEGSAHSQGTFTSDYSKYLDSRRAQDFVQWLMNTKRNRNNIASSSSKAPPPSLPSPSRLPGPSDTPILPQSSSSKAPPPSLPSPSRLPGPSDTPILPQSSSSKAPPPSLPSPSRLPGPSDTPILPQSSSSKAPPPSLPSPSRLPGPSDTPILPQSSSSKAPPPSLPSPSRLPGPSDTPILPQ
modifications: OXM-CTPx5

Test system: C57BL/6 mice
Experiment: IP glucose tolerance test (IPGTT)
Type: in vivo
Details: overnight fasted C57BL/6 mice
[1] = Experiment 1, 100 nmol/kg IP 15 min prior to glucose IP (1.5 g/kg)
[2] = Experiment 2, 100 nmol/kg IP prior to glucose IP (1.5 g/kg)

Row | Molecule | reduction of blood glucose AUC compared to vehicle group [1] | reduction of blood glucose AUC compared to vehicle group [2]
1 | B1 | 20-30% | –
2 | B2 | 20-30% | –
3 | B3 | – | 20-30%
4 | B4 | – | 20-30%
5 | B5 | – | 20-30%
